# Measurements taken from the supplement of paper PMC8728848.
# This is one part of the list.
# Columns and labels:
# Assay in all cases: glycan array binding signal (z-score within array); higher = stronger binding
# Conditions in all cases: glycan notation: IUPAC condensed, linker removed
# [1] = biological target: Man(a1-2)Man(a1-3)[Man(a1-2)Man(a1-6)]Man
# Summary of the method: (§1)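 Glycan array data were curated from 3228 arrays in the Consortium for Functional Glycomics database and kept only where the protein sequence was available. Glycan names were converted to IUPAC-condensed notation, and columns mapping to the same glycan were averaged. The binding signal is a within-array Z-score, averaged across arrays of the same protein sequence at different concentrations or buffers and across linkers. Negative Z-scores can be read as non-binding.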
# [2] = biological target: Man(a1-2)Man(a1-3)[Man(a1-2)Man(a1-6)]Man(a1-6)[Man(a1-2)Man(a1-2)Man(a1-3)]Man
# Summary of the method: as §1
# [3] = biological target: Man(a1-2)Man(a1-3)[Man(a1-2)Man(a1-6)]Man(a1-6)[Man(a1-2)Man(a1-2)Man(a1-3)]Man(b1-4)GlcNAc(b1-4)GlcNAc
# Summary of the method: as §1
# [4] = biological target: Man(a1-2)Man(a1-3)[Man(a1-6)]Man(a1-6)[Man(a1-2)Man(a1-3)]Man(b1-4)GlcNAc(b1-4)GlcNAc
# Summary of the method: as §1
# [5] = biological target: Man(a1-2)Man(a1-6)[Man(a1-3)]Man(a1-6)[Man(a1-2)Man(a1-2)Man(a1-3)]Man
# Summary of the method: as §1
# [6] = biological target: Man(a1-2)Man(a1-6)[Man(a1-3)]Man(a1-6)[Man(a1-2)Man(a1-2)Man(a1-3)]Man(b1-4)GlcNAc(b1-4)GlcNAc
# Summary of the method: as §1
# [7] = biological target: Man(a1-3)[Man(a1-6)]Man
# Summary of the method: as §1
# [8] = biological target: Man(a1-3)[Man(a1-6)]Man(a1-6)[Man(a1-2)Man(a1-3)]Man(b1-4)GlcNAc(b1-4)GlcNAc
# Summary of the method: as §1
# [9] = biological target: Man(a1-3)[Man(a1-6)]Man(a1-6)[Man(a1-3)]Man
# Summary of the method: as §1
# [10] = biological target: Man(a1-3)[Man(a1-6)]Man(a1-6)[Man(a1-3)]Man(b1-4)GlcNAc(b1-4)GlcNAc
# Summary of the method: as §1
# [11] = biological target: Man(a1-3)[Man(a1-6)]Man(b1-4)GlcNAc(b1-4)GlcNAc
# Summary of the method: as §1
# [12] = biological target: Man(a1-3)[Man(a1-6)]Man(b1-4)GlcNAc(b1-4)[Fuc(a1-6)]GlcNAc
# Summary of the method: as §1
# [13] = biological target: Man(a1-6)Man
# Summary of the method: as §1
# [14] = biological target: Man(b1-4)GlcNAc
# Summary of the method: as §1
# [15] = biological target: MurNAc(b1-4)GlcNAc
# Summary of the method: as §1
# [16] = biological target: Neu5Ac(a2-3)Gal
# Summary of the method: as §1
# [17] = biological target: Neu5Ac(a2-3)Gal(b1-3)GalNAc
# Summary of the method: as §1
# [18] = biological target: Neu5Ac(a2-3)Gal(b1-3)GalNAc(b1-3)Gal(a1-4)Gal(b1-4)Glc
# Summary of the method: as §1
# [19] = biological target: Neu5Ac(a2-3)Gal(b1-3)GalNAc(b1-4)Gal(b1-4)Glc
# Summary of the method: as §1
# [20] = biological target: Neu5Ac(a2-3)Gal(b1-3)GalNAc(b1-4)[Neu5Ac(a2-3)]Gal(b1-4)Glc
# Summary of the method: as §1
# [21] = biological target: Neu5Ac(a2-3)Gal(b1-3)GalNAc(b1-4)[Neu5Ac(a2-8)Neu5Ac(a2-3)]Gal(b1-4)Glc
# Summary of the method: as §1
# [22] = biological target: Neu5Ac(a2-3)Gal(b1-3)GalNAc6S
# Summary of the method: as §1
# [23] = biological target: Neu5Ac(a2-3)Gal(b1-3)GlcNAc
# Summary of the method: as §1
# [24] = biological target: Neu5Ac(a2-3)Gal(b1-3)GlcNAc(b1-2)Man
# Summary of the method: as §1
# [25] = biological target: Neu5Ac(a2-3)Gal(b1-3)GlcNAc(b1-2)Man(a1-3)[GlcNAc(b1-4)][Neu5Ac(a2-3)Gal(b1-3)GlcNAc(b1-2)Man(a1-6)]Man(b1-4)GlcNAc(b1-4)GlcNAc
# Summary of the method: as §1
# [26] = biological target: Neu5Ac(a2-3)Gal(b1-3)GlcNAc(b1-2)Man(a1-3)[Neu5Ac(a2-3)Gal(b1-3)GlcNAc(b1-2)Man(a1-6)]Man(b1-4)GlcNAc(b1-4)GlcNAc
# Summary of the method: as §1
# [27] = biological target: Neu5Ac(a2-3)Gal(b1-3)GlcNAc(b1-2)[Neu5Ac(a2-3)Gal(b1-3)GlcNAc(b1-4)]Man(a1-6)[Neu5Ac(a2-3)Gal(b1-3)GlcNAc(b1-2)Man(a1-3)]Man(b1-4)GlcNAc(b1-4)GlcNAc
# Summary of the method: as §1
# [28] = biological target: Neu5Ac(a2-3)Gal(b1-3)GlcNAc(b1-3)Gal(b1-3)GlcNAc
# Summary of the method: as §1
# [29] = biological target: Neu5Ac(a2-3)Gal(b1-3)GlcNAc(b1-3)Gal(b1-4)GlcNAc
# Summary of the method: as §1
# [30] = biological target: Neu5Ac(a2-3)Gal(b1-3)GlcNAc(b1-3)GalNAc
# Summary of the method: as §1
# [31] = biological target: Neu5Ac(a2-3)Gal(b1-3)GlcNAc(b1-6)GalNAc
# Summary of the method: as §1
# [32] = biological target: Neu5Ac(a2-3)Gal(b1-3)GlcNAc6S
# Summary of the method: as §1
# [33] = biological target: Neu5Ac(a2-3)Gal(b1-3)[Fuc(a1-4)]GlcNAc
# Summary of the method: as §1
# [34] = biological target: Neu5Ac(a2-3)Gal(b1-3)[Fuc(a1-4)]GlcNAc(b1-3)Gal(b1-3)[Fuc(a1-4)]GlcNAc
# Summary of the method: as §1
# [35] = biological target: Neu5Ac(a2-3)Gal(b1-3)[Fuc(a1-4)]GlcNAc(b1-3)Gal(b1-4)[Fuc(a1-3)]GlcNAc
# Summary of the method: as §1
# [36] = biological target: Neu5Ac(a2-3)Gal(b1-3)[GlcNAc(b1-6)]GalNAc
# Summary of the method: as §1
# [37] = biological target: Neu5Ac(a2-3)Gal(b1-3)[Neu5Ac(a2-6)]GalNAc
# Summary of the method: as §1
# [38] = biological target: Neu5Ac(a2-3)Gal(b1-3)[Neu5Ac(a2-6)]GlcNAc(b1-3)[Fuc(a1-3)[Gal(b1-4)]GlcNAc(b1-6)]Gal(b1-4)Glc
# Summary of the method: as §1
# [39] = biological target: Neu5Ac(a2-3)Gal(b1-3)]Neu5Ac(a2-3)Gal(b1-4)]GlcNAc
# Summary of the method: as §1
# [40] = biological target: Neu5Ac(a2-3)Gal(b1-4)Glc
# Summary of the method: as §1
# [41] = biological target: Neu5Ac(a2-3)Gal(b1-4)GlcNAc
# Summary of the method: as §1
# [42] = biological target: Neu5Ac(a2-3)Gal(b1-4)GlcNAc(b1-2)Man
# Summary of the method: as §1
# [43] = biological target: Neu5Ac(a2-3)Gal(b1-4)GlcNAc(b1-2)Man(a1-3)[GlcNAc(b1-4)][Neu5Ac(a2-3)Gal(b1-4)GlcNAc(b1-2)Man(a1-6)]Man(b1-4)GlcNAc(b1-4)GlcNAc
# Summary of the method: as §1
# [44] = biological target: Neu5Ac(a2-3)Gal(b1-4)GlcNAc(b1-2)Man(a1-3)[Neu5Ac(a2-3)Gal(b1-4)GlcNAc(b1-2)Man(a1-6)]Man(b1-4)GlcNAc(b1-4)GlcNAc
# Summary of the method: as §1
# [45] = biological target: Neu5Ac(a2-3)Gal(b1-4)GlcNAc(b1-2)Man(a1-3)[Neu5Ac(a2-3)Gal(b1-4)GlcNAc(b1-2)Man(a1-6)]Man(b1-4)GlcNAc(b1-4)[Fuc(a1-6)]GlcNAc
# Summary of the method: as §1
binder,measurement,setting,value
"ERGIC1-EDTA (Homo sapiens), Q969X5 (protein) MKFLVNVALVFMVVYISYIYAAAHMHHHHHHDYDIPTTENLYFQGSEVVNELYVDDPDKDSGGKIDVSLNISLPNLHCELVGLDIQDEMGRHEVGHIDNSMKIPLNNGAGCRFEGQFSINKVPGNFHVSTHSATAQPQNPDMTHVIHKLSFGDTLQVQNIHGAFNALGGADRLTSNPLASHDYILKIVPTVYEDKSGKQRYSYQYTVANKEYVAYSHTGRIIPAIWFRYDLSPITVKYTE",glycan array binding signal (z-score),[1],-0.556
same,glycan array binding signal (z-score),[2],0.464
same,glycan array binding signal (z-score),[3],-0.2
same,glycan array binding signal (z-score),[4],-0.931
same,glycan array binding signal (z-score),[5],0.324
same,glycan array binding signal (z-score),[6],-0.516
same,glycan array binding signal (z-score),[7],-0.591
same,glycan array binding signal (z-score),[8],-0.888
same,glycan array binding signal (z-score),[9],0.494
same,glycan array binding signal (z-score),[10],0.189
same,glycan array binding signal (z-score),[11],0.178
same,glycan array binding signal (z-score),[12],2.1
same,glycan array binding signal (z-score),[13],0.405
same,glycan array binding signal (z-score),[14],0.059
same,glycan array binding signal (z-score),[15],-0.587
same,glycan array binding signal (z-score),[16],1.35
same,glycan array binding signal (z-score),[17],-0.178
same,glycan array binding signal (z-score),[18],0.3
same,glycan array binding signal (z-score),[19],-0.913
same,glycan array binding signal (z-score),[20],-0.139
same,glycan array binding signal (z-score),[21],-0.443
same,glycan array binding signal (z-score),[22],-1.07
same,glycan array binding signal (z-score),[23],-0.199
same,glycan array binding signal (z-score),[24],-0.251
same,glycan array binding signal (z-score),[25],0.192
same,glycan array binding signal (z-score),[26],0.634
same,glycan array binding signal (z-score),[27],0.458
same,glycan array binding signal (z-score),[28],-1.4
same,glycan array binding signal (z-score),[29],0.249
same,glycan array binding signal (z-score),[30],0.617
same,glycan array binding signal (z-score),[31],-0.308
same,glycan array binding signal (z-score),[32],0.014
same,glycan array binding signal (z-score),[33],-0.492
same,glycan array binding signal (z-score),[34],-0.934
same,glycan array binding signal (z-score),[35],0.202
same,glycan array binding signal (z-score),[36],-1.11
same,glycan array binding signal (z-score),[37],-0.09
same,glycan array binding signal (z-score),[38],0.117
same,glycan array binding signal (z-score),[39],0.343
same,glycan array binding signal (z-score),[40],0.163
same,glycan array binding signal (z-score),[41],-0.75
same,glycan array binding signal (z-score),[42],0.592
same,glycan array binding signal (z-score),[43],0.241
same,glycan array binding signal (z-score),[44],-0.612
same,glycan array binding signal (z-score),[45],0.181

# A different layout for some results above:
binder	measurement	setting	value
ERGIC1-EDTA (Homo sapiens), Q969X5 (protein) MKFLVNVALVFMVVYISYIYAAAHMHHHHHHDYDIPTTENLYFQGSEVVNELYVDDPDKDSGGKIDVSLNISLPNLHCELVGLDIQDEMGRHEVGHIDNSMKIPLNNGAGCRFEGQFSINKVPGNFHVSTHSATAQPQNPDMTHVIHKLSFGDTLQVQNIHGAFNALGGADRLTSNPLASHDYILKIVPTVYEDKSGKQRYSYQYTVANKEYVAYSHTGRIIPAIWFRYDLSPITVKYTE	glycan array binding signal (z-score)	[10]	0.189
same	glycan array binding signal (z-score)	[13]	0.405
same	glycan array binding signal (z-score)	[15]	-0.587
same	glycan array binding signal (z-score)	[20]	-0.139
